According to publication PMC8359590:
No constants are given. Whether binding was seen depends on the method and setting. In cells and extracts the contact can be indirect. Some binding calls cover weakened binding; strength is not graded here.

By UniProt entry, the sequences of proteins in these tests, tags left out.
UniProt P49407: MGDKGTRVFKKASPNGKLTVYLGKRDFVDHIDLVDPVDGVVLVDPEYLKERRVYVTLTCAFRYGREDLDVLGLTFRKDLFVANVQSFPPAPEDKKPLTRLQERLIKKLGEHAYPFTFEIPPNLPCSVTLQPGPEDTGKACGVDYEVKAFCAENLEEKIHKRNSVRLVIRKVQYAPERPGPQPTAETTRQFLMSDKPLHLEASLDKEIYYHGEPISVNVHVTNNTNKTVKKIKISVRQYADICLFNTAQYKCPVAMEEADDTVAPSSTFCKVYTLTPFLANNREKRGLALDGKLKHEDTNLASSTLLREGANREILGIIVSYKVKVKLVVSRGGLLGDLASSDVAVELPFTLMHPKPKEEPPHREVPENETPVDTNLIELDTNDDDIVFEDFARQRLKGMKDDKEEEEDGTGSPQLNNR
UniProt Q04206: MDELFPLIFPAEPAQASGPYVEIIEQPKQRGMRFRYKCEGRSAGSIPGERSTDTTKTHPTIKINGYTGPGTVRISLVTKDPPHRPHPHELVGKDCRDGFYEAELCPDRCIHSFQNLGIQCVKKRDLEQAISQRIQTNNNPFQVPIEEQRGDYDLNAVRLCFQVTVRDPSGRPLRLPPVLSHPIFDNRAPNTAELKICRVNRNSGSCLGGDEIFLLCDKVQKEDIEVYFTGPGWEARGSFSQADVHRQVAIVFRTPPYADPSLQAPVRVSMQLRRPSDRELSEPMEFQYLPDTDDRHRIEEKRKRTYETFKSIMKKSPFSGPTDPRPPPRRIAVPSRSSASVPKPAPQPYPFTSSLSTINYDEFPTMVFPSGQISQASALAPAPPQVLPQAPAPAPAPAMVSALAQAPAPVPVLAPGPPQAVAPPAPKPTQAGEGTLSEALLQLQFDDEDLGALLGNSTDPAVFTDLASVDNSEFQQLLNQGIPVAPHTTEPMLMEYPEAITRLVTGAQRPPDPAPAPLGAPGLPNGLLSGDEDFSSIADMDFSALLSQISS

Experiments:
[1] = target: β-arrestin1 (ARRB1), endogenous in HepG2 cells (human (endogenous in HepG2)) (UniProt P49407); test: co-IP; lysates of HepG2 cells treated with TNF-α (40 ng/ml); immunoprecipitation with anti-ARRB1 antibody on Protein A magnetic beads, 4 °C overnight; blots with anti-p65 or p-p65 antibodies
[2] = target: β-arrestin1 (ARRB1), overexpressed from a lentiviral vector in HepG2 cells (human) (UniProt P49407); test: co-IP; lysates of ARRB1-overexpressing HepG2 cells; immunoprecipitation with anti-GFP antibody on Protein A magnetic beads, 4 °C overnight; blots with ARRB1-, p65- and p-p65-specific antibodies

binding [1]: binds | binding [2]: binds
Substance: NF-κBp65 (p65, RelA), endogenous in HepG2 cells (from UniProt Q04206 1-551)
